This is one part of the list. Hit calls seldom repeat between salt and free forms of one compound.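 Kinases, fused to nanoluciferase, were expressed in K562 cells; luminescence was measured every 4 h from 2 to 18 h as percent of control (DMSO = 100%, positive control = 0%). A time point is decreased if signal falls significantly (2 sigma). Hits were called by the authors by a rule that is not shown; the count of time points alone does not decide it.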
How the values were obtained:
Assay in all cases: kinase-Nluc reporter destabilization hit call (1 = scored as downregulated) (binary); higher = compound decreases kinase abundance
Details in all cases: K562; 2-18 h
CDK7 = CDK7 (UniProt P50613)
CDK9 = CDK9 (UniProt P50750)
CHEK2 = CHEK2 (UniProt O96017)
CSF1R = CSF1R (UniProt P07333)
CSK = CSK (UniProt P41240)
CSNK1A1 = CSNK1A1 (UniProt P48729)
CSNK1D = CSNK1D (UniProt P48730)
DDR1 = DDR1 (UniProt Q08345)
DYRK1B = DYRK1B (UniProt Q9Y463)
DYRK2 = DYRK2 (UniProt Q92630)

Protein sequences, listed by entry. Tags and fused reporters are not part of them. Lines headed by an entry give the natural chain unless they say otherwise; changes in a name come on top.
UniProt P50613: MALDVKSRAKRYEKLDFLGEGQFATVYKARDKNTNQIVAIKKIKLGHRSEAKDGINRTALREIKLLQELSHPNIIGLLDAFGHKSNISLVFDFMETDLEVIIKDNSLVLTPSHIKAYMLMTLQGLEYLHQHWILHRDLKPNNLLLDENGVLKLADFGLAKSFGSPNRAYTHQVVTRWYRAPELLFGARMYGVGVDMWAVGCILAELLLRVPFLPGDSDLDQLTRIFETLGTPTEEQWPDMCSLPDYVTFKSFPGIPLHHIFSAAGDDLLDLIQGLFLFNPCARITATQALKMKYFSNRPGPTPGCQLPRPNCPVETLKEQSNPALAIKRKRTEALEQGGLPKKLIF
UniProt P50750, whole entry: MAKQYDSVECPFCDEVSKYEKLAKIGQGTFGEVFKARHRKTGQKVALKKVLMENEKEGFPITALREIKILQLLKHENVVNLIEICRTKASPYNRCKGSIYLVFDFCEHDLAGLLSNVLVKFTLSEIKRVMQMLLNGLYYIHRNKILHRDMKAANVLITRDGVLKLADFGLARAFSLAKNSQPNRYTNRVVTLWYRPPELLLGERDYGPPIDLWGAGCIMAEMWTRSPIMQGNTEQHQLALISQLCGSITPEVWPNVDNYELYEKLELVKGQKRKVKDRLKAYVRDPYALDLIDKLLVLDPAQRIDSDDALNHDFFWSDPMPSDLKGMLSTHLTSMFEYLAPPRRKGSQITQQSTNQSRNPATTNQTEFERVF
UniProt O96017, whole entry: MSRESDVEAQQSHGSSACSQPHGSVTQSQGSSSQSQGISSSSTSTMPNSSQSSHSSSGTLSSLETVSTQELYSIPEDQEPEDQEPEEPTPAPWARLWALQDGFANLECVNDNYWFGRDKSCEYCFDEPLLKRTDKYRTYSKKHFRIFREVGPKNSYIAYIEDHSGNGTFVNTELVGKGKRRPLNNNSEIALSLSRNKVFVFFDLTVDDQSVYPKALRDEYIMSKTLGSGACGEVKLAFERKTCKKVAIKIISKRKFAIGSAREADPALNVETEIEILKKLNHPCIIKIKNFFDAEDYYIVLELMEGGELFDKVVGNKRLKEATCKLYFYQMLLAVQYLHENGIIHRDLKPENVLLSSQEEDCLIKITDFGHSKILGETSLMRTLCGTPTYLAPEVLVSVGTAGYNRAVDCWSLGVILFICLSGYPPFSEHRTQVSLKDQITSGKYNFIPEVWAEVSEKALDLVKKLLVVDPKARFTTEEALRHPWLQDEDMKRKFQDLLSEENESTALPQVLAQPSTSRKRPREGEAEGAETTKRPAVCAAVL
UniProt P07333, whole entry: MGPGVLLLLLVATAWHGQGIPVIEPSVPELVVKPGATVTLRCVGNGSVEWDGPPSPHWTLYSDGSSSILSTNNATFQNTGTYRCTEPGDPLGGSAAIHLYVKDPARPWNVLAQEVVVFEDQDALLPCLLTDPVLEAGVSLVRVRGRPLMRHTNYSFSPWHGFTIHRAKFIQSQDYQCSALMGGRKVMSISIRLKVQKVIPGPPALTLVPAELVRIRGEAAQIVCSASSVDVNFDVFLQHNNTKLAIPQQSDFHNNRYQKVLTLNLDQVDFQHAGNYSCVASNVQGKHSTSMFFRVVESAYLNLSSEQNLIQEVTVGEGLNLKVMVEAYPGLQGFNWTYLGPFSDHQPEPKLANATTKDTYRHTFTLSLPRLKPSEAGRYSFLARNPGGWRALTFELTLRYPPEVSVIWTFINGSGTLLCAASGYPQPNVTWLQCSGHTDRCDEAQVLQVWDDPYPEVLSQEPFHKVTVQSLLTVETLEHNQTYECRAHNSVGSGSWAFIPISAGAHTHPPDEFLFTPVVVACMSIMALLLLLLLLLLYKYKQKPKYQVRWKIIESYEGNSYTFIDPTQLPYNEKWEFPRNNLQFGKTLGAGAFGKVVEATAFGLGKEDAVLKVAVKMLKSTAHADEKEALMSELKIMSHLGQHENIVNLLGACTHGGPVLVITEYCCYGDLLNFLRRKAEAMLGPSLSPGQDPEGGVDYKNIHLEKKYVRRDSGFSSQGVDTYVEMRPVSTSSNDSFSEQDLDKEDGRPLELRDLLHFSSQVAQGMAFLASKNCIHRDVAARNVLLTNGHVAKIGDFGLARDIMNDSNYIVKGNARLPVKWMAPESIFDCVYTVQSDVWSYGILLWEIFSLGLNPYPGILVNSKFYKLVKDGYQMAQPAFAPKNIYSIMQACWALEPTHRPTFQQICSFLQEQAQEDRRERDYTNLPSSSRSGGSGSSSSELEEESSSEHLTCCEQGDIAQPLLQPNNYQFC
UniProt P41240: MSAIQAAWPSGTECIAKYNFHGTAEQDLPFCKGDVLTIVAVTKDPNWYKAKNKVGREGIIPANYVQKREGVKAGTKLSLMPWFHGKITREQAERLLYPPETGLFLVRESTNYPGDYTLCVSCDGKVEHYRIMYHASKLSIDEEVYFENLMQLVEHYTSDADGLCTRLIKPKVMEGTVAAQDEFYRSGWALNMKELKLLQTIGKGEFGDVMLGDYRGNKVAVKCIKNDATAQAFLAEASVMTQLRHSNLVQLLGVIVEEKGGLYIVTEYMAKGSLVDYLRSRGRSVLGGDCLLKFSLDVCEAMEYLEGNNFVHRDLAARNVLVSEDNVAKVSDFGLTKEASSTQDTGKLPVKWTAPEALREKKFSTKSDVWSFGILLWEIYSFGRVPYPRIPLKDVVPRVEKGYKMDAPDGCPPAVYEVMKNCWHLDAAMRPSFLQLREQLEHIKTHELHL
UniProt P48729: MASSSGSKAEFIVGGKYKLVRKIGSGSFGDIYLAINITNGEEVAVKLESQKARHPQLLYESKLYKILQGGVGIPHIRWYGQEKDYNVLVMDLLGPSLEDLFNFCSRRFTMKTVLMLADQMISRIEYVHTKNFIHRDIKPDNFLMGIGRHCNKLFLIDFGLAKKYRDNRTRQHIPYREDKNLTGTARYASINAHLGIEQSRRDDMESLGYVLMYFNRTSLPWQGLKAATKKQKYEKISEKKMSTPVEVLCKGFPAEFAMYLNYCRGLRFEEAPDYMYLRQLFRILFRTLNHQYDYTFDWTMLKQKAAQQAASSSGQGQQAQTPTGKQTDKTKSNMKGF
UniProt P48730: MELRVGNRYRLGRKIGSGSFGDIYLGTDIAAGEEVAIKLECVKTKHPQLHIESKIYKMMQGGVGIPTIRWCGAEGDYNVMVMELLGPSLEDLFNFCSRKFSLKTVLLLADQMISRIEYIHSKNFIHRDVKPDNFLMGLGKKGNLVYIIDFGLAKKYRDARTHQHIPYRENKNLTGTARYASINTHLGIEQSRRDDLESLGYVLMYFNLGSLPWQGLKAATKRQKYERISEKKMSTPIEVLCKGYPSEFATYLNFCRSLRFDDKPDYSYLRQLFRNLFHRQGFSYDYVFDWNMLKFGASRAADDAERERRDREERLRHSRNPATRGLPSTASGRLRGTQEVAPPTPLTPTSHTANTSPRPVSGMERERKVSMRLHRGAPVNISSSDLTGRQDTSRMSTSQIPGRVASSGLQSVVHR
UniProt Q08345: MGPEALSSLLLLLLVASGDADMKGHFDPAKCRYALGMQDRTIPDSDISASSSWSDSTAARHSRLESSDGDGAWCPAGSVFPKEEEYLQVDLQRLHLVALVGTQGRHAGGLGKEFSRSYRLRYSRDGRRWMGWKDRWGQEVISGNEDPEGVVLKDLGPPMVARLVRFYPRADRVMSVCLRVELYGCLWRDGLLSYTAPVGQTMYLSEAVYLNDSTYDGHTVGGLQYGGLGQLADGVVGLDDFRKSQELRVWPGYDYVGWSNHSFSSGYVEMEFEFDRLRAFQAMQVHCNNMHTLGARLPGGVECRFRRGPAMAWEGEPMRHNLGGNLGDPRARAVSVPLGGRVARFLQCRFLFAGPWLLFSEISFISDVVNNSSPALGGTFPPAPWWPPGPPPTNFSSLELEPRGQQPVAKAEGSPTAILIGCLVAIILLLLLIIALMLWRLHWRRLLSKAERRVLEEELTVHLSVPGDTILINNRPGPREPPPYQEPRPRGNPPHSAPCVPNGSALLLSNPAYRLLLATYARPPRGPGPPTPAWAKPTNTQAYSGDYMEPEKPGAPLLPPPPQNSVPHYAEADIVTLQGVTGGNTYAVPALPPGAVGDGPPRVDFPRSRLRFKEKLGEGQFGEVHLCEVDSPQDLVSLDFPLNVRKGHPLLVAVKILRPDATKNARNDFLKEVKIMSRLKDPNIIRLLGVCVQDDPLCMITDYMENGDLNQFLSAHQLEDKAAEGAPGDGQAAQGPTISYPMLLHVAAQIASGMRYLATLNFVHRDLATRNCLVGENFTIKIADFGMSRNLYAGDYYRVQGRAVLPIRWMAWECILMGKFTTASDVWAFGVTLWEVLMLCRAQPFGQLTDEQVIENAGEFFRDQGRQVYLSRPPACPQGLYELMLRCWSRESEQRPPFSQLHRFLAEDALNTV
UniProt Q9Y463, whole entry, looked up: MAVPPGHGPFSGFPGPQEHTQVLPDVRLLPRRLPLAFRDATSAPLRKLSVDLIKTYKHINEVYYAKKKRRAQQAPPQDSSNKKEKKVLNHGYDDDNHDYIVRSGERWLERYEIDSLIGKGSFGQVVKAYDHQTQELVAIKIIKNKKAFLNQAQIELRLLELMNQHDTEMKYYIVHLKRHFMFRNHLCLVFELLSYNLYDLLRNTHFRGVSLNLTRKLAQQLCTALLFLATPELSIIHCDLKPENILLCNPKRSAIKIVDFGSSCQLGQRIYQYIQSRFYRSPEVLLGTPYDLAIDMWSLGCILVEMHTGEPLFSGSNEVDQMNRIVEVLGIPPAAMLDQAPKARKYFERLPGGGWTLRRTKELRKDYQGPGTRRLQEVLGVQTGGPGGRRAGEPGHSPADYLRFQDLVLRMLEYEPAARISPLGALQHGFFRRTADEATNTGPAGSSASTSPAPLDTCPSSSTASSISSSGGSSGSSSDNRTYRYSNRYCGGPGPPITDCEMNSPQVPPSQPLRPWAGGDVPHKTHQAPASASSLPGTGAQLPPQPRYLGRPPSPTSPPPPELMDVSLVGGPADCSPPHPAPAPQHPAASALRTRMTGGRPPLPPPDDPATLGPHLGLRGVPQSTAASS
UniProt Q92630: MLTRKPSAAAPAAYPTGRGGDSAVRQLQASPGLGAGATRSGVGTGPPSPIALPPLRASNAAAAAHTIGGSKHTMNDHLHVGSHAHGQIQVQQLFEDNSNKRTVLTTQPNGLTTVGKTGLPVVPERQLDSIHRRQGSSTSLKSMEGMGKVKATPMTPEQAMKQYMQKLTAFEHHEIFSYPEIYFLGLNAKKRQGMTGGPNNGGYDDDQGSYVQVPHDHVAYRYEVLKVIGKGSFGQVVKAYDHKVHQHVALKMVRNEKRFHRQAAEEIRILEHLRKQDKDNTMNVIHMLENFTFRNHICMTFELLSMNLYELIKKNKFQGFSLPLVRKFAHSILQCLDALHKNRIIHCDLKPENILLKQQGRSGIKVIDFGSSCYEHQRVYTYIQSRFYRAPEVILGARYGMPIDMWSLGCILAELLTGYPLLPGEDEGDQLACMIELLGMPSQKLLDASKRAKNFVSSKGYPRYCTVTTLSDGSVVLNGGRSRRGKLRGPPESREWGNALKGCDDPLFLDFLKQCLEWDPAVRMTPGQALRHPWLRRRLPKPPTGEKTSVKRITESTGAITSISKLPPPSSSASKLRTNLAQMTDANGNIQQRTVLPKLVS

Measured: kinase-Nluc reporter destabilization hit call

O=Cc1cn(Cc2ccc(Cl)cc2)c2ccccc12 [Oncrasin-1] (10 µM)
inactive: CDK7 = 0 | CDK9 = 0 | CHEK2 = 0 | CSF1R 0 | CSK 0 | CSNK1A1 = 0 | CSNK1D 0 | DDR1 = 0 | DYRK1B 0 | DYRK2 = 0

COC[C@H]1OC(=O)c2coc3c2[C@@]1(C)C1=C(C3=O)[C@@H]2CCC(=O)[C@@]2(C)C[C@H]1OC(C)=O [Wortmannin] (2.5 µM)
inactive: CDK7 = 0 | CDK9 = 0 | CHEK2 = 0 | CSF1R 0 | CSK 0 | CSNK1A1 = 0 | CSNK1D 0 | DDR1 = 0 | DYRK1B 0 | DYRK2 = 0

CCOC(=O)c1c(/C(C#N)=C\N)c2ccc(Cl)c(Cl)c2n1C (10 µM)
inactive: CDK7 = 0 | CDK9 = 0 | CHEK2 = 0 | CSF1R 0 | CSK 0 | CSNK1A1 = 0 | CSNK1D 0 | DDR1 = 0 | DYRK1B 0 | DYRK2 = 0

At a glance, 2 of the compounds above:
COC[C@H]1OC(=O)c2coc3c2[C@@]1(C)C1=C(C3=O)[C@@H]2CCC(=O)[C@@]2(C)C[C@H]1OC(C)=O [Wortmannin] (2.5 µM)
inactive: CDK7 = 0 | CDK9 = 0 | CHEK2 = 0 | CSF1R 0 | CSK 0 | CSNK1A1 = 0 | CSNK1D 0 | DDR1 = 0 | DYRK1B 0 | DYRK2 = 0

CCOC(=O)c1c(/C(C#N)=C\N)c2ccc(Cl)c(Cl)c2n1C (10 µM)
inactive: CDK7 = 0 | CDK9 = 0 | CHEK2 = 0 | CSF1R 0 | CSK 0 | CSNK1A1 = 0 | CSNK1D 0 | DDR1 = 0 | DYRK1B 0 | DYRK2 = 0

The results go on.

O=C(N[C@@H](COc1ccc2[nH]c(=O)[nH]c2c1)c1ccccc1)c1cccn(Cc2ccc(F)c(F)c2)c1=O (2.5 µM)
inactive: CDK7 = 0 | CDK9 = 0 | CHEK2 = 0 | CSF1R 0 | CSK 0 | CSNK1A1 = 0 | CSNK1D 0 | DDR1 = 0 | DYRK1B 0 | DYRK2 = 0

CCCS(=O)(=O)Nc1ccc(F)c(-n2cc(-c3cncnc3)c3nc(N(C)C4CCN(CC)CC4)ccc32)c1F (2 µM)
inactive: CDK7 = 0 | CDK9 = 0 | CHEK2 = 0 | CSF1R 0 | CSK 0 | CSNK1A1 = 0 | CSNK1D 0 | DDR1 = 0 | DYRK1B 0 | DYRK2 = 0

O=C(/C=C/c1ccccc1)OC[C@H]1O[C@@H](O[C@@H]2OC=C[C@H]3[C@H](O)[C@@H]4O[C@]4(CO)[C@@H]23)[C@H](O)[C@@H](O)[C@@H]1O [Picroside I] (10 µM)
inactive: CDK7 = 0 | CDK9 = 0 | CHEK2 = 0 | CSF1R 0 | CSK 0 | CSNK1A1 = 0 | CSNK1D 0 | DDR1 = 0 | DYRK1B 0 | DYRK2 = 0

N#CC(C#N)=Cc1ccc([N+](=O)[O-])c(O)c1 (10 µM)
inactive: CDK7 = 0 | CDK9 = 0 | CHEK2 = 0 | CSF1R 0 | CSK 0 | CSNK1A1 = 0 | CSNK1D 0 | DDR1 = 0 | DYRK1B 0 | DYRK2 = 0

C=C[C@H]1CN2CC[C@]3(C(=O)Nc4ccccc43)[C@@H]2C[C@@H]1/C(=C\OC)C(=O)OC [Corynoxeine] (2 µM)
inactive: CDK7 = 0 | CDK9 = 0 | CHEK2 = 0 | CSF1R 0 | CSK 0 | CSNK1A1 = 0 | CSNK1D 0 | DDR1 = 0 | DYRK1B 0 | DYRK2 = 0

O=[N+]([O-])/C=C/c1ccc2c(c1)OCO2 (2.5 µM)
inactive: CDK7 = 0 | CDK9 = 0 | CHEK2 = 0 | CSF1R 0 | CSK 0 | CSNK1A1 = 0 | CSNK1D 0 | DDR1 = 0 | DYRK1B 0 | DYRK2 = 0

O=c1ccc2cc(O[C@@H]3O[C@H](CO)[C@@H](O)[C@H](O)[C@H]3O)c(O)cc2o1 [Esculin] (10 µM)
inactive: CDK7 = 0 | CDK9 = 0 | CHEK2 = 0 | CSF1R 0 | CSK 0 | CSNK1A1 = 0 | CSNK1D 0 | DDR1 = 0 | DYRK1B 0 | DYRK2 = 0

CC(=O)c1c(O)c(C)c(O)c(Cc2c(O)c3c(c(C(=O)/C=C/c4ccccc4)c2O)OC(C)(C)C=C3)c1O [Rottlerin] (2 µM)
inactive: CDK7 = 0 | CDK9 = 0 | CHEK2 = 0 | CSF1R 0 | CSK 0 | CSNK1A1 = 0 | CSNK1D 0 | DDR1 = 0 | DYRK1B 0 | DYRK2 = 0

C[C@H]1CC[C@]2(NC1)O[C@H]1C[C@H]3[C@@H]4CC[C@H]5C[C@@H](O)CC[C@]5(C)[C@H]4CC[C@]3(C)[C@H]1[C@@H]2C [Tomatidine] (2 µM)
inactive: CDK7 = 0 | CDK9 = 0 | CHEK2 = 0 | CSF1R 0 | CSK 0 | CSNK1A1 = 0 | CSNK1D 0 | DDR1 = 0 | DYRK1B 0 | DYRK2 = 0

COc1ccc(/C=C/c2cc(OC)c(OC)c(OC)c2)cc1 (2.5 µM)
inactive: CDK7 = 0 | CDK9 = 0 | CHEK2 = 0 | CSF1R 0 | CSK 0 | CSNK1A1 = 0 | CSNK1D 0 | DDR1 = 0 | DYRK1B 0 | DYRK2 = 0

CC(=O)OC(C)(C)/C=C/C(=O)[C@](C)(O)[C@H]1[C@H](O)C[C@@]2(C)[C@@H]3CC=C4[C@@H](C=C(O)C(=O)C4(C)C)[C@]3(C)C(=O)C[C@]12C [Cucurbitacin E] (2.5 µM)
inactive: CDK7 = 0 | CDK9 = 0 | CHEK2 = 0 | CSF1R 0 | CSK 0 | CSNK1A1 = 0 | CSNK1D 0 | DDR1 = 0 | DYRK1B 0 | DYRK2 = 0

O=c1[nH]c2ccccc2n1C1CCN(CCCC(c2ccc(F)cc2)c2ccc(F)cc2)CC1 [Pimozide] (2.5 µM)
inactive: CDK7 = 0 | CDK9 = 0 | CHEK2 = 0 | CSF1R 0 | CSK 0 | CSNK1A1 = 0 | CSNK1D 0 | DDR1 = 0 | DYRK1B 0 | DYRK2 = 0

C=CC(=O)N[C@H]1C=C(C)c2c(-c3cnc4ccccc4c3)c3c(N)ncnc3n2C1 (10 µM)
inactive: CDK7 = 0 | CDK9 = 0 | CHEK2 = 0 | CSF1R 0 | CSK 0 | CSNK1A1 = 0 | CSNK1D 0 | DDR1 = 0 | DYRK1B 0 | DYRK2 = 0

Cc1ccccc1-n1c(Cn2cnc3c(N)ncnc32)nc2cccc(C)c2c1=O (10 µM)
inactive: CDK7 = 0 | CDK9 = 0 | CHEK2 = 0 | CSF1R 0 | CSK 0 | CSNK1A1 = 0 | CSNK1D 0 | DDR1 = 0 | DYRK1B 0 | DYRK2 = 0

N#CC(C#N)=Cc1ccc(O)c(O)c1 [Tyrphostin 23] (10 µM)
inactive: CDK7 = 0 | CDK9 = 0 | CHEK2 = 0 | CSF1R 0 | CSK 0 | CSNK1A1 = 0 | CSNK1D 0 | DDR1 = 0 | DYRK1B 0 | DYRK2 = 0

C/C(O)=C(\C#N)C(=O)Nc1cc(Br)ccc1Br (10 µM)
inactive: CDK7 = 0 | CDK9 = 0 | CHEK2 = 0 | CSF1R 0 | CSK 0 | CSNK1A1 = 0 | CSNK1D 0 | DDR1 = 0 | DYRK1B 0 | DYRK2 = 0

C[S+]([O-])/C=C/CCN=C=S (stereo not given) [Sulforaphene] (10 µM)
inactive: CDK7 = 0 | CDK9 = 0 | CHEK2 = 0 | CSF1R 0 | CSK 0 | CSNK1A1 = 0 | CSNK1D 0 | DDR1 = 0 | DYRK1B 0 | DYRK2 = 0

CC(=O)O[C@H]1[C@H]2[C@@H](OC(=O)Cc3ccccc3)[C@@H](C)C[C@]2(OC(C)=O)C(=O)/C(C)=C/[C@@H]2[C@H](CC[C@@]13CO3)C2(C)C [Euphorbiasteroid] (10 µM)
inactive: CDK7 = 0 | CDK9 = 0 | CHEK2 = 0 | CSF1R 0 | CSK 0 | CSNK1A1 = 0 | CSNK1D 0 | DDR1 = 0 | DYRK1B 0 | DYRK2 = 0

C/C=C(/C)C(=O)O[C@H]1[C@@H]2[C@H](C)C(=O)O[C@@H]2C[C@@H](C)[C@@H]2C=CC(=O)[C@]21C [Brevilin A] (2.5 µM)
inactive: CDK7 = 0 | CDK9 = 0 | CHEK2 = 0 | CSF1R 0 | CSK 0 | CSNK1A1 = 0 | CSNK1D 0 | DDR1 = 0 | DYRK1B 0 | DYRK2 = 0

O=C1C=CC[C@@H]2[C@H]3CCCN4CCC[C@@H](CN12)[C@@H]34 [Sophocarpine] (10 µM)
inactive: CDK7 = 0 | CDK9 = 0 | CHEK2 = 0 | CSF1R 0 | CSK 0 | CSNK1A1 = 0 | CSNK1D 0 | DDR1 = 0 | DYRK1B 0 | DYRK2 = 0

Cc1ccccc1-n1c(Cn2ncc3c(N)ncnc32)nc2cccc(C)c2c1=O (10 µM)
inactive: CDK7 = 0 | CDK9 = 0 | CHEK2 = 0 | CSF1R 0 | CSK 0 | CSNK1A1 = 0 | CSNK1D 0 | DDR1 = 0 | DYRK1B 0 | DYRK2 = 0

O=c1cc(O)c2ccccc2o1 [4-Hydroxycoumarin] (10 µM)
inactive: CDK7 = 0 | CDK9 = 0 | CHEK2 = 0 | CSF1R 0 | CSK 0 | CSNK1A1 = 0 | CSNK1D 0 | DDR1 = 0 | DYRK1B 0 | DYRK2 = 0

COc1ccc2c(c1)[nH]c1c(C)nccc12 [Harmine] (10 µM)
inactive: CDK7 = 0 | CDK9 = 0 | CHEK2 = 0 | CSF1R 0 | CSK 0 | CSNK1A1 = 0 | CSNK1D 0 | DDR1 = 0 | DYRK1B 0 | DYRK2 = 0

COc1cc2c(cc1F)C(c1ccccc1Cl)=Nc1c(n[nH]c1C)N2 (0.5 µM)
inactive: CDK7 = 0 | CDK9 = 0 | CHEK2 = 0 | CSF1R 0 | CSK 0 | CSNK1A1 = 0 | CSNK1D 0 | DDR1 = 0 | DYRK1B 0 | DYRK2 = 0

COc1ccc2c(c[n+](C)c3c4cc5c(cc4ccc23)OCO5)c1OC [Chelerythrine (chloride)] (10 µM)
inactive: CDK7 = 0 | CDK9 = 0 | CHEK2 = 0 | CSF1R 0 | CSK 0 | CSNK1A1 = 0 | CSNK1D 0 | DDR1 = 0 | DYRK1B 0 | DYRK2 = 0

CCCCCCCCCCCCCCCCOC[C@H](COP(=O)([O-])OCC[N+](C)(C)C)OC(C)=O (10 µM)
inactive: CDK7 = 0 | CDK9 = 0 | CHEK2 = 0 | CSF1R 0 | CSK 0 | CSNK1A1 = 0 | CSNK1D 0 | DDR1 = 0 | DYRK1B 0 | DYRK2 = 0

CC1C(=O)OC2C(O)C34C5OC(=O)C3(OC3OC(=O)C(O)C34C(C(C)(C)C)C5O)C12O (stereo not given) [Ginkgolide C] (10 µM)
inactive: CDK7 = 0 | CDK9 = 0 | CHEK2 = 0 | CSF1R 0 | CSK 0 | CSNK1A1 = 0 | CSNK1D 0 | DDR1 = 0 | DYRK1B 0 | DYRK2 = 0

O=C(O)c1nn(Cc2ccc(Cl)cc2Cl)c2ccccc12 [Lonidamine] (10 µM)
inactive: CDK7 = 0 | CDK9 = 0 | CHEK2 = 0 | CSF1R 0 | CSK 0 | CSNK1A1 = 0 | CSNK1D 0 | DDR1 = 0 | DYRK1B 0 | DYRK2 = 0

Cc1n[nH]cc1-c1cc2nc([C@@H]3CC4CCN3CC4)[nH]c(=O)c2s1 [Simurosertib] (2.5 µM)
inactive: CDK7 = 0 | CDK9 = 0 | CHEK2 = 0 | CSF1R 0 | CSK 0 | CSNK1A1 = 0 | CSNK1D 0 | DDR1 = 0 | DYRK1B 0 | DYRK2 = 0

CC(C)=CC[C@@H](OC(=O)CC(C)(C)O)C1=CC(=O)c2c(O)ccc(O)c2C1=O [β-Hydroxyisovalerylshikonin] (2.5 µM)
inactive: CDK7 = 0 | CDK9 = 0 | CHEK2 = 0 | CSF1R 0 | CSK 0 | CSNK1A1 = 0 | CSNK1D 0 | DDR1 = 0 | DYRK1B 0 | DYRK2 = 0

Source: the supplement of paper PMC12823440, “Inhibitors supercharge kinase turnover through native proteolytic circuits” (Nature, 2025)
